Measured values: article PMC8376021

Chains of the proteins cited; added tags and fusions are not shown. Lines headed by an entry give the natural chain unless they say otherwise; changes in a name come on top. A line that says so, or that is headed by a name, gives the form on record, which may keep a tag or linker.
Myc-tagged human PML, isoform VI (P29590-4, form named): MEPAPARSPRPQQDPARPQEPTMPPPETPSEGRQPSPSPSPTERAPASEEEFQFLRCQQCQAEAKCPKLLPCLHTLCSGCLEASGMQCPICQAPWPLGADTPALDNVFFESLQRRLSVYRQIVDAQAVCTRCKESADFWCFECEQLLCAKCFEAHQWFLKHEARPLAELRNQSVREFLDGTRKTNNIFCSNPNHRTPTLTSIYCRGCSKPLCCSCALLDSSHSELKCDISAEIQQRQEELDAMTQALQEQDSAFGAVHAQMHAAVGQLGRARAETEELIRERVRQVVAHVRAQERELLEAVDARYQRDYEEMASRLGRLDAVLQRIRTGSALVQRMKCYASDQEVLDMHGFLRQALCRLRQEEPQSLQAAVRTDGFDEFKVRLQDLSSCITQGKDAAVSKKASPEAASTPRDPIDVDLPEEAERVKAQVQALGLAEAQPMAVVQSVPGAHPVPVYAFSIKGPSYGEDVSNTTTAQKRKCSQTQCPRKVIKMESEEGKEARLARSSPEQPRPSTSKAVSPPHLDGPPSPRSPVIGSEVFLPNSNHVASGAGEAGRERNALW

B1: Myc-tagged full-length rat PML (protein, UniProt F1M589 1-934)
chain: MNSAPVGGPPEKRPNPEIETEPGSTQKAPAPSGSLCQQLDPALIPTPTMPPPEEPSEDHEHSQSPAEQAIKEEFQFLRCPGCQTQAKCPKLLPCLHTLCSGCLEAPGLQCPICQAPGSANANAEALDNVFFESLQRRLAVFRQIVDAQAACTRCKELADFWCFECEQLMCGKCFDAHQWYLKHEARPLAELRDNSVREFLDSTRKSNIFCSNTNHRTPAQTNIYCRGCAKPLCCECALLDRNHSHLQCEIGKEIQQLHEELGTMTQALEEQGRTFDSAHAQMHSAIGQLDDARSDTEKQIRARVRQVIEHVQAQERELLEAVNVRYQRDYQEIAGQLGHLEAVLQRIRTGGALVKRMKLYASEQEVLDMHGFLRKALCRLRQEEPQNHKVQLRTSGFEEFKLCLQDLVSFITQRTDVAVAGRASPEAASTHPEAASAQPEAASTHPEAASAQPEAASAHPESASTPGNSTDLEQPKEVQRAQAQAMELSKTQPVAMVKSVPGAHPVPVYAFSMQGPTYREEASQTVSPMKRKCCHIDCCRKIIKMESTDENEDRLSTSSPEQPRPSTSKAISPPHPDGTSSTESTIPEKETPLPNNNHVASDAGETEERIVVISSSEDSDAENLPSHELDDSSSESSSIQLEGPNSLKALDESLAEPHLEDRTLVFFDLKIDNETQKISQLAAVNRESKFRVLIQPEAFSVYSKAVSLESGLQHFLSFLNSMHRPLLACPRLWGPGLPIFFQALNDINKLWEFQDAISGFLAVLPLIQERIPSASSFKLRNLAKTYLARNMSERSALAAVLAMRDLCCLLEVSPGLQLAQHIYSFSSLQCFASLQPLIQAQVLPQPEARLLALHNVSFLELLTAYRSNRQEGLKKYVHYLSLQTTPSSASTQIAQFLQALSAYMDGQLEGHIPAGAEGTALSLSGRAENKGCLA

Tests used:
Test in all cases: co-IP; HEK293T co-transfected with FLAG-tagged IE1 variants and Myc-tagged PML variants; lysis in CoIP buffer (50 mM Tris-HCl pH 8.0, 150 mM NaCl, 5 mM EDTA, 0.5% NP-40); IP with anti-FLAG M2 on protein-A-sepharose, 2 h at 4°C; co-precipitated PML detected by Western blot
[1] = target: FLAG-tagged ratIE1 1-392 (N-terminally extended ratIE1 core) (rat cytomegalovirus) (UniProt K7XWE8)
[2] = target: FLAG-tagged ratIE1 1-392 (N-terminally extended ratIE1 core) (rat cytomegalovirus) (UniProt K7XWE8); remark: listed apart in the source
[3] = target: FLAG-tagged ratIE1 (rat cytomegalovirus) (UniProt K7XWE8)

Molecule	binding [1]	binding [2]	binding [3]
Myc-tagged human PML, isoform VI (from UniProt P29590-4 1-560)	no binding	–	–
B1	–	binds	binds

Where two headings read alike, the source gives them in different places. Results are given in words; binding and its absence hold for the method and conditions named. Binding seen in cells or lysates may run through a third protein. For part of these data: Binding calls can cover weak binding; strength is not graded here. For part of these data: Sequences can lack the tags named with a protein.
